Assay results from US7420029B2, “Tissue-specific transporter inhibitor” (Japan Science and Technology Agency, priority 2001, dated 2008).

Target: T1, PEPT 1 (Rattus norvegicus, UniProt P51574)
T1 sequence (P51574 1-710): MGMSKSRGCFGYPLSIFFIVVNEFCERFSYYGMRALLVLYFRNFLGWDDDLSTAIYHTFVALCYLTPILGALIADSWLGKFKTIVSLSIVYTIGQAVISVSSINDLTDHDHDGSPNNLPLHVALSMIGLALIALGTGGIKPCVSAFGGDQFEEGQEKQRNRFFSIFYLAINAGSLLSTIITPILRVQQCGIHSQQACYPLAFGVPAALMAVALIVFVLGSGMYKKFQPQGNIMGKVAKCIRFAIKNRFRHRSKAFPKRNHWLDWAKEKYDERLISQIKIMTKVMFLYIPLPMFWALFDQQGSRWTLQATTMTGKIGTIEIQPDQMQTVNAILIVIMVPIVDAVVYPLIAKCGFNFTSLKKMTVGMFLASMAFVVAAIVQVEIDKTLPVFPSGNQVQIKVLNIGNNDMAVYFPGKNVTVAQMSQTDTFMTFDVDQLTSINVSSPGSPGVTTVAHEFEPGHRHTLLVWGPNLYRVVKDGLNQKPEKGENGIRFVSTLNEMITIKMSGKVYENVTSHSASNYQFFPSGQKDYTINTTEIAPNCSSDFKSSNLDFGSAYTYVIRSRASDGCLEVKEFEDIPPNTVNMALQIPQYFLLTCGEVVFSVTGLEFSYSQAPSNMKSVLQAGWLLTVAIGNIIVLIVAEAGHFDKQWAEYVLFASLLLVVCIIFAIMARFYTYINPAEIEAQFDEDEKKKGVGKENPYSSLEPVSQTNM
Details: male, Sprague-Dawley, in vivo, po, 5 mg/kg

Structure (SMILES): CC1=C(C(=O)O)N2C(=O)C(NC(=O)C(N)c3ccccc3)C2SC1 (stereo not shown) [Cephalexin, cephalexin]
- ke (elimination rate constant) of CDX: 0.68 ± 0.19 h⁻¹
